Laboratory results taken from article PMC3391290.
These are yes or no findings as the source states them, for the method shown. Some results given as binding are weak or reduced against the parent protein; the word gives no strength.

The chains behind the UniProt entries cited, without tags or fusion partners. Where a name states a change or a piece, a line headed by the entry shows the natural chain unless it says otherwise. Residues count along the entry.
UniProt P22888, residues 27-699: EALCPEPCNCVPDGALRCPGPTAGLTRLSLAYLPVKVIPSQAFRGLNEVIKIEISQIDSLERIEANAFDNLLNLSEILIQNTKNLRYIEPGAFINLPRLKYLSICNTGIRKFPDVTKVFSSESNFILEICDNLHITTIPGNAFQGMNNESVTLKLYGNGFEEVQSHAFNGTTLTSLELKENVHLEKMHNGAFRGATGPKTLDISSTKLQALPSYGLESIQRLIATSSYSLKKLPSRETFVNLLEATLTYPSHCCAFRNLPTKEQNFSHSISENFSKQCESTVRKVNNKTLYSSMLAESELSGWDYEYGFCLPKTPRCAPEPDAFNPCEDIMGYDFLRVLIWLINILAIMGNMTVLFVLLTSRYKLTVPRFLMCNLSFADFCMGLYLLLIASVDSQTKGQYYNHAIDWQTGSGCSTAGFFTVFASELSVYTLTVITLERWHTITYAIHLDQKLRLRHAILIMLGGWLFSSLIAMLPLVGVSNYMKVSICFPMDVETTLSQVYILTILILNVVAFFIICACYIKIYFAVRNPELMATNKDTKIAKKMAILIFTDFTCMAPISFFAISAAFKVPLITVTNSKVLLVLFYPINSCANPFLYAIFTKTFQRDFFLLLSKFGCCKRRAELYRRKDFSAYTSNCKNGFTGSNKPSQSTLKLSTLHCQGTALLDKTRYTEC
UniProt P01215: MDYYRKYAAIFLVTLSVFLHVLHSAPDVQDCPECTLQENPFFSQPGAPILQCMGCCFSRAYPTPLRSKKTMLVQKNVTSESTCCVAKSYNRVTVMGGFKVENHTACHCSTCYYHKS

Target: human LH receptor (hLHR) (human) (UniProt P22888)
Assay: radioligand binding; 125I-hCG or 125I-hTSH incubated with increasing dilutions of MAb 2A6 for 1 h at room temperature, then membrane preparation of HEK293-LHR or HEK293-TSHR for 1 h; bound label pelleted and counted; only the binder purified

binding: binds
Substance: human chorionic gonadotropin (hCG) (from UniProt P01215 25-116; P0DN86 21-165) (ligand)
